The values that follow come from article PMC4310350 (Drug Design, Development and Therapy, 2015).

“Also recorded” adds a separate entry of the source.

For series [1], the target named is T1, OAT3 (Homo sapiens, UniProt Q8TCC7).
T1 sequence (Q8TCC7 1-542): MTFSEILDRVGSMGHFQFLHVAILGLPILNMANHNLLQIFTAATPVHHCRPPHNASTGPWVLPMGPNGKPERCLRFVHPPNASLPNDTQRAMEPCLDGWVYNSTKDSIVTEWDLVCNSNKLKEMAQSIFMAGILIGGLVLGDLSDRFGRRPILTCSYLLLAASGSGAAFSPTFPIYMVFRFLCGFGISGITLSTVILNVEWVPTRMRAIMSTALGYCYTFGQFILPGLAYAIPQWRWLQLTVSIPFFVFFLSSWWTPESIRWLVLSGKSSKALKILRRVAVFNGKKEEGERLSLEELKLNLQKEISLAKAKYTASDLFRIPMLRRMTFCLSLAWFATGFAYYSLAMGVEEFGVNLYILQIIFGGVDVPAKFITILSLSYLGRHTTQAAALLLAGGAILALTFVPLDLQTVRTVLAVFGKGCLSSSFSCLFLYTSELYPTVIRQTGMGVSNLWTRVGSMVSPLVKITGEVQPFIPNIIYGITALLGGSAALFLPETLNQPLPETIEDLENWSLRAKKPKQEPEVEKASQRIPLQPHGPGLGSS
As to conditions: 10 μM catalposide, HEK293-OAT3.

Series [2] addresses T1, OAT3. The conditions noted are these: read-out: IC50 as inhibitor of OAT3; cited from earlier work.
Series [3] concerns the target T1, OAT3. The series can be described thus: in vitro. As to conditions: HEK293 cells transiently expressing OAT3, probe catalposide 10 μM.

In the case of `NS(=O)(=O)c1cc(C(=O)O)c(NCc2ccco2)cc1Cl` [furosemide], in series [1], the “Effect on OAT3-mediated catalposide uptake (words)” value was “decreased to basal levels; also recorded: inhibited OAT3-mediated catalposide transport in a concentration-dependent manner”. Moreover, in series [2], the 50% inhibitory concentration (IC50) (as a rule, the midpoint of a concentration-inhibition curve) was 51.1 ± 10.5 µM. In addition, the inhibition (as a rule, the change of the read-out against control, counted positive when it falls) at 10 min, 100 μM in series [3] was 98.3%.
